At least one structure is not confirmed: it was looked up by name or label, or the drawing left a doubt.
System: FaDu cancer stem cells
Assay: stemness gene expression versus chemo- and targeted therapeutics
Type: cell-based
Details: 24 hours, 2-acetylnaphtho[2,3-b]furan-4,9-dione 2 mM, sunitinib 20 mM, gemcitabine 2 mM, carboplatin 32 mM, FIGS. 4(A)-(D)
Method: FIGS. 4(A)-(D) depict FaDu cancer stem cells that were treated for 24 hours with DMSO and: (i) 2-acetylnaphtho[2,3-b]furan-4,9-dione (2 mM) (FIG. 4(A)), (ii) sunitinib (20 mM) (FIG. 4(B)), (iii) gemcitabine (2 mM) (FIG. 4(C)), or (iv) carboplatin (32 mM) (FIG. 4(D)).

CCN(CC)CCNC(=O)c1c(C)[nH]c(/C=C2\C(=O)Nc3ccc(F)cc32)c1C [sunitinib] was tested, and the “expression of self-renewal / CSC genes (β-Catenin, Nanog, Smo, Sox2)” value was “increased CSC gene expression in certain cases”.
